Reference: publication PMC10127613 (mBio, 2023)
Weaker means in comparison with the reference protein, sequence or condition of that experiment. Protein sequences can lack the tags named with them.

Target: T1, Clr (Sinorhizobium meliloti) (UniProt Q92SD2)
T1 sequence (looked up): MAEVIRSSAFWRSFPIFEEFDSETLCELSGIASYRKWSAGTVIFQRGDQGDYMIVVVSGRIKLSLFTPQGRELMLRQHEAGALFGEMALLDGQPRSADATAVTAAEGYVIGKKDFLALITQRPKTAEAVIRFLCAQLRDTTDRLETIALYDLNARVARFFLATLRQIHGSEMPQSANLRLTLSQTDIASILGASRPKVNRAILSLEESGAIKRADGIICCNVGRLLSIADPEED
Assay: EMSA
Conditions: 1 mM cAMP, EMSA: 2 mM HEPES pH 7.0, 30 mM NaCl, 50 mM KCl, 850 ng salmon sperm DNA, 1 ug BSA, 20 ng Cy3-DNA, 3 ug Clr in 10 uL, room temperature, recombinant protein, residues 1-234, protein details: C-terminal His6 (pET36b, NdeI/XhoI), label: 5'-Cy3 on reverse strand

Row | Sequence | binding result
1 | AGCGGATAACAATTTCACACAGGAAACAGCATATGACCATGATTACGCCAAGCTCGAAATTAACCCTCACTAAAGGGAACAAAAGCTGGAGCTCGGAGACCGTGTTTCCGTTAAGAAATCATTAGGATTTTAATGAATGGGGAACGCTCATAATTGTAAGAGCCCGGCTAATGTGTCACTACGATACGATTAGGAACGGGTCCGTATATGAAAATGGCAACTGTTCCGGTGGATAAGCTGCGTCACAAGGTGTCGCAGGGCATAGGCTGCGGCTATCCATCGAGGCGATGTAATGGGTGATCAGTCAATCTATGGCTTCATTGCGAAGCTTGGACCTTGCGGTCACCGCCCTGGTTCGGATGTTCCGCTGGGCACCTGGCGGCACAGGAAGACGGCCATCATCGGGCAATAGTAGTGAGGCGTATCCGTATGGCGACGAAGAAGACCAACTCTAGACTGCAGATGGTGAGCAAGGGCGAGGAGCTGTTCA (double strand) [SMc00190] | binds more weakly
2 | AGCGGATAACAATTTCACACAGGAAACAGCATATGACCATGATTACGCCAAGCTCGAAATTAACCCTCACTAAAGGGAACAAAAGCTGGAGCTCGTGGACTGAAGTGGCGGACAGAGAGGGATTCGAACCCTCGATACGCTTTCACGTATACACGCGTTCCAGGCGTGCGCCTTCAACCACTCGGCCACCTGTCCATCCTTCTGCAGCCGGCGGTCGATCCGGCTGGATGGGGAAAAGCGAAGCTTCTCCGCGTCACCGGTGAAACCGGGAGACGGGCGCGATATATACCGATGATGCGCGCGGGATCAACTGGTTTCTGACATATTATTGACATGCCTTGAAAGGTGCTGCGGATGACCGGCCATTGCGCTTGCCCGCCCTTGCGCCTATCTCTTGCGCAGGACGAGCCGAAAGGGGGAGCGGATGCGGTTGCTGCTGCGGTTTTCTAGACTGCAGATGGTGAGCAAGGGCGAGGAGCTGTTCA (double strand) [SMc02886] | binds more weakly
3 | AGCGGATAACAATTTCACACAGGAAACAGCATATGACCATGATTACGCCAAGCTCGAAATTAACCCTCACTAAAGGGAACAAAAGCTGGAGCTCTTAAGCTTAAGCGGATCCAGGCACTGCTTGAAACTCTGGAACGTGCCGAACGCCAGTCGCATAAATGACGATCGCTCCGTGTCCCTCCGGCAACAGGCATGCGCCCTGGCGTCGTGCCGCGCGGAACAAAAGGCGCCAATCGGCGTTTTGGCGACAATAACAAGCGCCGCGGCGGCGGCATCCATGGGAGATGGGAATGCAAGCCTCGGCGGCGCCTGTTGTGATCACCCCTCCAGTGGGGATCGACGCTCAGATGAGCGTCGCAGCGGCTCCAGCCATGGCCTCGGCGCGCATTTCCGCCGAAGACTGTGCTCGGCAACTCCAGCAGTTCTGTATCAACCCTGAATAGGAACGCGTCATGAAGAAGCTACTCGTCGTCTCTAGACTGCAGATGGTGAGCAAGGGCGAGGAGCTGTTCA (double strand) [SMc00795 / SMc00796] | binds more weakly
4 | AGCGGATAACAATTTCACACAGGAAACAGCATATGACCATGATTACGCCAAGCTCGAAATTAACCCTCACTAAAGGGAACAAAAGCTGGAGCTCTTAAGCTTAAGGCACTGACGGTTCTCCTGCTGCTGGCCATGTGCGTCCAGCTCATCAAGCCGCTCGGCTTTCCGGGCCTCAGGCAGCGCCGCGATTTCTGGAAGATTGCCGTCTTCGCCATCGTCGTGATGATGGTCACGGTGCTCGTGCGTCCTTGAACTACTGCCGTGCCGCGCGGGATCTCGATTCTCCGGCGGCTCGGCGTTCCCCGAGAAACAGCAGCTTGGGCTAGGGCCGCGCTATTGTCGTCACCAAGTCGCTCTATCTCCGCACGACATGACGACAGGAAAAGGTTAAATTACCGTGCTCGGCCACAAGATGAAGATCGAGGCTCTGTTGGAACGTCGTCTCACCTCTAGACTGCAGATGGTGAGCAAGGGCGAGGAGCTGTTCA (double strand) [cyaF2] | binds
5 | AGCGGATAACAATTTCACACAGGAAACAGCATATGACCATGATTACGCCAAGCTCGAAATTAACCCTCACTAAAGGGAACAAAAGCTGGAGCTCTTAAGCTTAATACGGGGGTCTGGTAAGCCTCGCACAACTGCCACCGGCTAATCGTCAGCCGTCGCCGGCTCTGCCGAGCGGCGCGGCACTGGCCGGAGCAAGAGGATCAATAGAACAGCGGATGATCTTCAGGCCCGGCTATTGCCGGGCCTTCGCTTATATTTTGCGAAGCTGAAATAGGTTGGTGCAGGTTTACAAAACACGCGGCGTTCATTACCTTGCCGCGCAGACGTTGAAACGGGGCTCTGCTTCGTCGTCACTTGCGGGGATAGCCCTATACTTGCCTGACCTTTCCCGTGGGGAGCCTAGCGCCCTCCGCATGAAATTGTTGTGCCGTTCCGGACAGTATTCGGAACCGGGACGTGTTGTGTGCGCGGTGCAAGGCCACCCGCATGCACGGAGAGCGGGGAAAAGGCGTTGCAACATCTGGAACCAGGATACAGGTCTAGACTGCAGATGGTGAGCAAGGGCGAGGAGCTGTTCA (double strand) [SMc00291] | binds more weakly
6 | AGCGGATAACAATTTCACACAGGAAACAGCATATGACCATGATTACGCCAAGCTCGAAATTAACCCTCACTAAAGGGAACAAAAGCTGGAGCTCTTAAGCTTACCGGAAACATCGTCGCGGGCTAGTTATTTCGGATTATAAAGTATTGTTAATAGACGCATCATTCTGCACTGACGGACAGCGGACCCGCTGGTGCACGAAATTGACGCGCGGCAACTTTCCCTCACTTTTTTTGCATCGCAACATTTTATTGCGGCGCACAGTTGCTGAGGCTACCCGCTCAAACACGTGTAACAAAAGTTGATCGGGAAAAAAGGCCGGCCACACGCCCCAAGAGGTAGCACCCAAGGCAGCTTTCCGAAAGGCCGGGCAATTTTAGGGGAACTACGGCCGCGTTCCGCGCGCATCCACCTCACGCGGCAAACTGCCCCGGAGATGGGGAACTTATCCGCGATCACACCCGTTTGAATTGTGCGAAATGGAGCCAATGCTTAAAGGCGGCGGAAAGATTTCCGATGTATGCTCGACTGCAACAAAGTAGCGTTTCCCGGTTGAAGAGAAAAGCGGGCGCTAATATAGTGGCCAGGCAGGAGGAGAGGGCAACAACTCTTATGAGGTTCCCAATCGCAGACCCGAAGGTAGGTTAGCGCCATGTTCGCACCGCGTGTTCTAGACTGCAGATGGTGAGCAAGGGCGAGGAGCTGTTCA (double strand) [exoX / exoY] | binds more weakly
7 | AGCGGATAACAATTTCACACAGGAAACAGCATATGACCATGATTACGCCAAGCTCGAAATTAACCCTCACTAAAGGGAACAAAAGCTGGAGCTCTTAAGCTTACGATCGGCTACGGCGTTTCCTCCGGCTGTATCCGCATGCGCAACGAGGATGTGGTCGATCTTTATGAGAGGGTGAAGGTCGGCACAAAAGTCATCGTGATATAGCGACTATGGATGCACAATACTTCTTCCGCGTTTTCTCTCTTCAACTCCCAAAAACGTGGTTTTGAAGCAACAGATGTTCCCTCAGATACAAGTCTTACCGAAATCGCCGCACTATAGAATGTATCGCGGGCGTCCACTTGCGGTTAAATCGCGTGGCTTGCTTGCAACGAGGGTTCAGAGGGAATCGTAAATGAGACGTCATGTCACGGGGATGTCTAGACTGCAGATGGTGAGCAAGGGCGAGGAGCTGTTCA (double strand) [SMc00925] | binds
8 | AGCGGATAACAATTTCACACAGGAAACAGCATATGACCATGATTACGCCAAGCTCGAAATTAACCCTCACTAAAGGGAACAAAAGCTGGAGCTCTTAAGCTTACGTCGTAGTCTTCCCTGACGCGCACCGTGAACCCGAGAAGCGTCCCGGTCTCGAGCAGGCGGTCCAGGCGATTTTGCACGGTACCACGCGCCACGCCCAGCGCGTCGGAAAGTTTGGAAAGCGATGCCCGCCCGTCGGCGCGCAGATGCGCAATGATCCGGCGGTCCAGATCATCCGGGGTGTATTTTGCAACTGCTGAATCGCCAACTCCTGTTCTGCTCATATCGCACAATCCGACTGGAAAAATTGCTCAGTTCGGTGCCGAAAATAGCACATCTTTGCGCTTTCGACCAGCGCGCTCAATCGCTACCCTGTCCTGGAATACAGCAAGCCGCCAAGAGGAACCTCCATGTTCTCCCCGCTTCCCTCACTAGACTGCAGATGGTGAGCAAGGGCGAGGAGCTGTTCA (double strand) [ocd] | binds more weakly
9 | AGCGGATAACAATTTCACACAGGAAACAGCATATGACCATGATTACGCCAAGCTCGAAATTAACCCTCACTAAAGGGAACAAAAGCTGGAGCTCTTAAGCTTAGCCAGTTTCGAAAGGGGCAGACCGCGGGTGGCGTACAAAAATTGCTGAAACTAACGAAGAGCCGCCAAGCGAGATATCGTGCCGTACTGGACCGGATCACGTTCGTCGGGCTTCTACTTGTTGTGCTCTAGTTTCTCAAGCATTCACGCCATATTCATCAATACAAAAAGTCACCCACGGAATCCCAAACGATCTGTAAAAGTTGAGGATGAGTGCACCATGATTCAGAAAATTCTTATTTTATATCGAGACAAATCTTTGCGTTCTGAGGGAGATTCGTGTTGCGGCGCCGCGACGTTGAATTTTTTGCGAAAATATTCGGTAATCGATTAACAAATATGTTTCGTCGATGATCGATAGTATTTGTTTACTTTATTGGCTTTTGAGCGCACTGTAAAAATCTGGATTGCTATTGGCTCCTGGTCTAGACTGCAGATGGTGAGCAAGGGCGAGGAGCTGTTCA (double strand) [SMa1635] | binds more weakly
10 | AGCGGATAACAATTTCACACAGGAAACAGCATATGACCATGATTACGCCAAGCTCGAAATTAACCCTCACTAAAGGGAACAAAAGCTGGAGCTCTTAAGCTTAGCGCAGTCTCTTGCGCATCCTCCGCAGTCGAAGGGCAACTCCTTGGAAAATCTGGTTTTTTCCGGAAGGTTCCAACTGGCACGCATTGTGCATATTCAGTTCCGTGTCCAGAGGGGACCACAATAAGACAGCGCCCAAGAAGGTCGCGACAAGGGCCGCCGCCGATCGCCTGTGATCCCGGATGTACGGACACGGAGATCGGTTGGCGGCCCTCATTTTCCCACCTGTCGCATTGGCGAAGCGCCCCGGCTCGACTATCTAATACATAACGCCCTAGATCGGGTGCGATTTGGGCCAGCGATTGCAGCAGTCAAAACGTTGCGCGCCAACGAAAGAGCAAGAGGCCGACATGCCGGACGTCACCTCTAGACTGCAGATGGTGAGCAAGGGCGAGGAGCTGTTCA (double strand) [SMc00876] | binds more weakly
11 | AGCGGATAACAATTTCACACAGGAAACAGCATATGACCATGATTACGCCAAGCTCGAAATTAACCCTCACTAAAGGGAACAAAAGCTGGAGCTCTTAAGCTTAGCTTTTGCGTCGTGATTCGCAGCATGCCCATGCTCAATGCCTATCATCGGGCTCAAAATTGTCAATCTTCAGCTCACATCGACACGCAGGGCGCATCGACGTGTGGCGCGACTACAACGGGCGAACTTCGCCGCTGCAACCCGATTTCGAGTTCTAGGGCTTACAACGATGGCAAGGTCAATCGGAAAATATCGGGGACGAGAAAAAAGTCGAAAGTCTCAGGTGCCGTGGCATGCCCGCCACGGTCAGGAAATTGTTAACCATATTCTCGGTTCCTCGGGGAACAGCCCGGCCGGCGCCACAGGAATAACTCTATTCCGCGCTCTTTCGAACGCGGAAGCAAAACAACAGGTCGGAGAAGATGGATATGATCAAATCGGGTCTCGGCTCTAGACTGCAGATGGTGAGCAAGGGCGAGGAGCTGTTCA (double strand) [SMc02278 / SMc02279] | binds
